Measurements published in patent publication US20240115729A1, “COMPOSITIONS AND METHODS FOR TARGETED ANTIFIBROTIC THERAPY IN CHRONIC PANCREATITIS” (University of Virginia Patent Foundation, priority 2021, published 2024).
These are yes or no findings as the source states them, for the method shown. Some results given as binding are weak or reduced against the parent protein; the word gives no strength.

Chains of the proteins cited; added tags and fusions are not shown. Residues count along the entry.
UniProt P08121, residues 155-1219: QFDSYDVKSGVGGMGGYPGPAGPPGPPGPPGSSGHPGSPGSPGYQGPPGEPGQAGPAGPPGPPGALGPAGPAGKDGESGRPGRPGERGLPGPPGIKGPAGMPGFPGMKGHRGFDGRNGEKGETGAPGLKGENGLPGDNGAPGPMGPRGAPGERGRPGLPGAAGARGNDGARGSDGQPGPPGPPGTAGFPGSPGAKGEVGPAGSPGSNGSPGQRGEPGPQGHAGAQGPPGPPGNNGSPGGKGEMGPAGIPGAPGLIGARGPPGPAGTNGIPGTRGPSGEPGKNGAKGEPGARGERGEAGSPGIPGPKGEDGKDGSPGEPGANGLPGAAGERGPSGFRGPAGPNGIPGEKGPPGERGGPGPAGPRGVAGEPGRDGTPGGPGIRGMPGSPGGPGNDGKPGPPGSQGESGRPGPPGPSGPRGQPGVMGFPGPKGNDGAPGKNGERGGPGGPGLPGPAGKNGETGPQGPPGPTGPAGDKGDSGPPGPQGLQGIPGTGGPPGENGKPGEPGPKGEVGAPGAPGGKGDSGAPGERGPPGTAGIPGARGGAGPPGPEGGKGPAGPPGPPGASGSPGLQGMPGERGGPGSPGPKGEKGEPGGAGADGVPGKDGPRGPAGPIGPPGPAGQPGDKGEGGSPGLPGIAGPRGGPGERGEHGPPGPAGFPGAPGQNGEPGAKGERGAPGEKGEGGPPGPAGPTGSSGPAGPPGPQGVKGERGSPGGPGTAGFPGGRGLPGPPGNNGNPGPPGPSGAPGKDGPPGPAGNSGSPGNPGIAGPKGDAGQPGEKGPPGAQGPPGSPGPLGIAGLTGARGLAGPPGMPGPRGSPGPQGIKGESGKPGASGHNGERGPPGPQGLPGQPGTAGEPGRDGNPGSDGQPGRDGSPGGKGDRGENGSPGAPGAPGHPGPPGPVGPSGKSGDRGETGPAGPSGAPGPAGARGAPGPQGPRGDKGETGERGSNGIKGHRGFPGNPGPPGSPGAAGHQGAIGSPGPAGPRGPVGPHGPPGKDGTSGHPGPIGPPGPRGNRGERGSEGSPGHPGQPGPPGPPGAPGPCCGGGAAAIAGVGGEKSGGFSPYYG

Assays:
collagen IIIa (mouse) [1] = biological target: collagen IIIa (mouse) (UniProt P08121); test: summary table of phage clones showing specificity to cellular components (IF colocalization)
collagen IIIa (mouse) [2] = biological target: collagen IIIa (mouse) (UniProt P08121); test: IF colocalization; one-way ANOVA and Tukey-Kramer on MCC
collagen IIIa (mouse) [3] = biological target: collagen IIIa (mouse) (UniProt P08121); test: immunofluorescence images, CP mouse pancreas (FIG. 7)
collagen IIIa (mouse) [4] = biological target: collagen IIIa (mouse) (UniProt P08121); test: IF colocalization of VT680 phage with marker, CP mouse pancreas sections; Tukey-Kramer test

Measured: binding

B1: MDLSLKP (SEQ ID NO: 19) phage clone (peptide, not shown: large carriers)
peptide: MDLSLKP
binds: all assays above
